Experimental data published in PubChem BioAssay AID493014 (National Center for Advancing Translational Sciences (NCATS), 2011).
In all, about 340,000 compounds went through this assay and about 170 (0.05%) were called active. Inconclusive means that the source gave no clear call. Such entries were picked first, then a sample of the others. Calls follow the shape of the dose curve; as a rule, active = well fitted inhibition curve with a large enough effect in the signal ratio, with a control signal flat (not every such curve was filed as active); inconclusive = small, poorly fitted or top-dose-only effect, or effect the other way, or a change in a side signal; inactive = flat fitted curve, though single readings scatter; the % refers to the signal ratio. Potencies beside an inconclusive call are fits to weak or partial responses and may not hold up.

Test: qHTS Assay to Find Inhibitors of Chronic Active B-Cell Receptor Signaling;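 as to activity change, negative = inhibition: plate controls were basal doxycycline-induced cells for no effect and cells given 10 µM MG132 for full effect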
Details: ABC-DLBCL IkBa-CBG/CBR reporter, luminescence ratio (green luciferase fused to IkBa over red control in TMD8 lymphoma cells), 4 h; activity change, negative = inhibition: at 46.1 µM (top of the series)
In short: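 TMD8 human ABC-DLBCL cells with doxycycline-inducible IκBα–green luciferase fusion and unfused red luciferase, in 0.5% FBS medium; compounds up to 46 uM, 4 h at 37C. Green/red luminescence ratio, filter-overlap corrected, fitted to concentration-response curves.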
Potency is read from the fitted curve at half-maximal effect.

Q: For `CCCCN(C)CCC(=O)Nc1ccc(Cl)cc1`, which activity change, negative = inhibition is on record?
A: The activity change, negative = inhibition was inconclusive: 1.32%.

Q: With `CO[C@@H]1[C@@H](OC(N)=O)[C@@H](O)C(Oc2ccc3c(O)c(NC(=O)c4ccc(O)c(CC=C(C)C)c4)c(=O)oc3c2C)OC1(C)C` (stereo not given in full) as the molecule, how does the activity change, negative = inhibition read?
A: The activity change, negative = inhibition was inconclusive: 18.7%.

Q: Which activity change, negative = inhibition does the source give for `Cc1ccc(N(CC(=O)NC2CCCCC2)S(=O)(=O)c2cccs2)cc1` here?
A: The activity change, negative = inhibition was “inactive”.

Q: Which activity change, negative = inhibition does the source give for `C[C@@H]1CC=C[C@H]2[C@H]1C(=O)N(Cc1ccccc1)[C@H]2c1cccc([N+](=O)[O-])c1` here?
A: The activity change, negative = inhibition was “inactive”.

Q: Which activity change, negative = inhibition does the source give for `Cc1ccc(NCC(=O)N/N=C/c2ccc(OC(=O)c3ccco3)cc2)cc1` here?
A: The activity change, negative = inhibition was inconclusive: -0.15%.

Q: Which activity change, negative = inhibition does the source give for `O=C(CCC(=O)Nc1nnc(C2CCCCC2)s1)NCc1cccs1` here?
A: Its activity change, negative = inhibition is inconclusive: 0.878%.

Q: With `Cn1cc(CCNC(=O)c2ccc3nc(Cc4ccccc4F)oc3c2)cn1` as the molecule, how does the activity change, negative = inhibition read?
A: Its activity change, negative = inhibition is inconclusive: -91.4%.

Q: With `O=C(N/N=C\c1ccc(Cl)s1)c1cccs1` as the molecule, how does the Potency read?
A: The Potency was inconclusive: 11.6 µM [falling, partial curve].

Q: For `CCOC(=O)CSc1ncc(-c2ccccc2)nn1`, which activity change, negative = inhibition is on record?
A: The activity change, negative = inhibition was inconclusive: -0.0393%.

Q: For `Cc1ccc2sc(N(CCCN(C)C)C(=O)CN3C(=O)c4ccccc4C3=O)nc2c1C`, which activity change, negative = inhibition is on record?
A: Its activity change, negative = inhibition is inconclusive: -2.1%.

Q: Which activity change, negative = inhibition does the source give for `CCN1CCN(c2ccc(S(=O)(=O)N3CCOCC3)cc2NC(=O)/C=C/c2ccc([N+](=O)[O-])cc2)CC1` here?
A: The activity change, negative = inhibition was inconclusive: -11.8%.

Q: With `CCCC(=O)Nc1nc(-c2ccccc2)ns1` as the molecule, how does the activity change, negative = inhibition read?
A: Its activity change, negative = inhibition is inconclusive: 0.697%.

Q: For `CCOc1ccc(NC(=O)COC(=O)C2CC2C)cc1` (stereo not given), which activity change, negative = inhibition is on record?
A: The activity change, negative = inhibition was inconclusive: 6.44%.

Q: Which activity change, negative = inhibition does the source give for `CC(C)[C@H](NC(=O)c1ccccc1Cl)C(=O)OCc1cc(=O)n2cc(Br)ccc2n1` here?
A: Its activity change, negative = inhibition is inconclusive: 15.8%.

Q: For `O=C(NC(=S)Nc1ccc(S(=O)(=O)N2CCCCC2)cc1)c1ccc(Cl)cc1`, which activity change, negative = inhibition is on record?
A: Its activity change, negative = inhibition is inconclusive: 0.846%.

Q: Which activity change, negative = inhibition does the source give for `O=c1[nH]c(SCc2ccccc2Cl)nc2c1cnn2-c1ccccc1` here?
A: The activity change, negative = inhibition was inconclusive: 11.7%.

Q: For `COc1ccc(C(=O)N2CCn3c2nc2ccccc23)cc1`, which activity change, negative = inhibition is on record?
A: The activity change, negative = inhibition was “inactive”.

Q: For `O=C(CSc1n[nH]c(-c2ccncc2)n1)Nc1ccc(Cl)c(Cl)c1`, which activity change, negative = inhibition is on record?
A: The activity change, negative = inhibition was inconclusive: -6.57%.

Q: For `Cc1ccc(C(=O)CC(=O)COc2ccc(Cl)cc2C)cc1`, which activity change, negative = inhibition is on record?
A: Its activity change, negative = inhibition is “inactive”.

Q: With `Cc1ccsc1C(=O)NNC(=O)C1CCCCC1C(=O)O` (stereo not given) as the molecule, how does the activity change, negative = inhibition read?
A: Its activity change, negative = inhibition is inconclusive: 271%.

Q: With `Cc1cc([N+](=O)[O-])nn1CCCC(=O)NCc1ccc(F)cc1` as the molecule, how does the activity change, negative = inhibition read?
A: Its activity change, negative = inhibition is inconclusive: 7.59%.

Q: For `CCCCN(C)C(=O)C1CCC(CNS(=O)(=O)c2ccc3c(c2)CC(C)N3C(C)=O)CC1` (stereo not given), which activity change, negative = inhibition is on record?
A: The activity change, negative = inhibition was “inactive”.

Q: Which activity change, negative = inhibition does the source give for `CC(=O)OCC1OC(c2ccccc2)C(OC(C)=O)C(OC(C)=O)C1OC(C)=O` (stereo not given) here?
A: Its activity change, negative = inhibition is “inactive”.

Q: For `Cc1ccc(OCC(=O)Nc2ccc(F)cc2)c([N+](=O)[O-])n1`, which activity change, negative = inhibition is on record?
A: The activity change, negative = inhibition was “inactive”.

Q: Which Potency does the source give for `O=c1oc(-c2cccs2)nc2ccc(Cl)cc12` here?
A: The Potency was inconclusive: 3.55 µM [rising, partial curve, poor fit].

Q: For `Cc1ccnc(NC(=O)CCC(=O)c2cccs2)c1`, which Potency is on record?
A: Its Potency is inconclusive: 20.6 µM [falling, single point].

Q: With `COc1ccc(/C=N/n2cnnc2)cc1Oc1nc(Cl)ncc1F` as the molecule, how does the Potency read?
A: Its Potency is inconclusive: 14.1 µM [falling, single point].

Q: For `Cc1nc(C/C(=N\N)c2ccc(O)cc2O)cs1`, which Potency is on record?
A: Its Potency is inconclusive: 2 µM [falling, partial curve, poor fit].

Q: With `CC(NC(=O)c1cc(-c2ccc(Br)cc2)on1)c1ccccc1` (stereo not given) as the molecule, how does the activity change, negative = inhibition read?
A: The activity change, negative = inhibition was inconclusive: 7.7%.

Q: For `COc1ccccc1C(=O)NNC(=O)C(=O)Nc1ccc(C)c(Cl)c1`, which Potency is on record?
A: Its Potency is inconclusive: 22.4 µM [falling, partial curve].

Q: With `CC(=O)c1ccc(NC(=O)c2cnsn2)cc1` as the molecule, how does the Potency read?
A: Its Potency is inconclusive: 35.5 µM [falling, single point].

Q: For `O=C(COC(=O)CNC(=O)c1cccc(OC(F)F)c1)NCc1ccc2c(c1)OCO2`, which activity change, negative = inhibition is on record?
A: Its activity change, negative = inhibition is inconclusive: 0.183%.

Q: Which activity change, negative = inhibition does the source give for `C=CCOC(=O)C1=C[C@H](c2coc3ccccc3c2=O)[C@@H](CCCO)[C@H](OCC)O1` here?
A: The activity change, negative = inhibition was inconclusive: 2.88%.

Q: For `Cc1ccc(S(=O)(=O)c2cc3c(=O)n4ccccc4nc3n(C)c2=N)cc1C`, which activity change, negative = inhibition is on record?
A: Its activity change, negative = inhibition is “inactive”.

Q: For `CCOC(=O)c1c(C)c(C(=O)N2CCN(c3cccc(Cl)c3)CC2)c(C)n1C`, which activity change, negative = inhibition is on record?
A: The activity change, negative = inhibition was inconclusive: 8.08%.

Q: Which activity change, negative = inhibition does the source give for `Clc1ccc(-c2cn3c(n2)CCC3)cc1` here?
A: The activity change, negative = inhibition was inconclusive: 0.31%.

Q: Which Potency does the source give for `COc1c(N2CCN(C(=S)NCc3ccccc3)C(C)C2)c(F)cc2c(=O)c(C(=O)O)cn(C3CC3)c12` (stereo not given) here?
A: Its Potency is inconclusive: 8.91 µM [rising, partial curve, poor fit].

Q: With `CC(C)(C)c1ccc(C(=O)Nc2cccnc2)cc1` as the molecule, how does the activity change, negative = inhibition read?
A: Its activity change, negative = inhibition is “inactive”.

Q: With `CCn1c(SCC(=O)c2ccc(Cl)cc2)nnc1C(C)C` as the molecule, how does the Potency read?
A: The Potency was inconclusive: 35.5 µM [falling, single point].

Q: Which activity change, negative = inhibition does the source give for `CCOC(=O)c1c(-c2ccc(C)o2)csc1N` here?
A: The activity change, negative = inhibition was inconclusive: -6.73%.

Q: Which activity change, negative = inhibition does the source give for `CCCCCN(C(=O)CCC(=O)OCc1cccc(Br)c1)c1c(N)n(CCCC)c(=O)[nH]c1=O` here?
A: Its activity change, negative = inhibition is “inactive”.

Q: For `CC(C)c1ccc2c(c1)C1(NN=C(c3ccccc3)S1)C(=O)N2` (stereo not given), which Potency is on record?
A: The Potency was inconclusive: 29.1 µM [falling, single point].

Q: Which Potency does the source give for `CC1=C(C(=O)NCc2ccccc2)C(c2ccc(C)o2)n2ncnc2N1` (stereo not given) here?
A: Its Potency is inconclusive: 22.4 µM [falling, single point].

Q: For `COc1cc(/C=N/NC(=S)Nc2cccc(C(=O)O)c2)cc(OC)c1OC`, which Potency is on record?
A: The Potency was inconclusive: 29.1 µM [falling, single point].

Q: With `COc1ccc(COc2cc(-c3cccc(OC)c3)nc3ccc(NC(=O)c4ccccc4)cc23)cc1` as the molecule, how does the Potency read?
A: The Potency was inconclusive: 29.1 µM [falling, single point].

Q: Which Potency does the source give for `CCN=C1S/C(=C\c2ccc(-c3cccc(C(=O)O)c3)o2)C(=O)N1CC` here?
A: The Potency was inconclusive: 20 µM [falling, single point].

Q: For `NC(=O)c1ccc(SCC(=O)NC2CCCCC2)c([N+](=O)[O-])c1`, which activity change, negative = inhibition is on record?
A: The activity change, negative = inhibition was inconclusive: 7.21%.

Q: With `CCc1ccc(-c2nn(Cc3ccccc3)cc2C(=O)NCC2CCCO2)cc1` (stereo not given) as the molecule, how does the activity change, negative = inhibition read?
A: Its activity change, negative = inhibition is inconclusive: 2.02%.

Q: With `Cc1cc(C)c2nc(NC(=O)C3CCCO3)sc2c1` (stereo not given) as the molecule, how does the Potency read?
A: Its Potency is inconclusive: 29.1 µM [falling, single point].

Q: With `COc1ccc(S(=O)(=O)N2CCOCC2)cc1NC(=O)CSc1ncnc2ccccc12` as the molecule, how does the activity change, negative = inhibition read?
A: Its activity change, negative = inhibition is inconclusive: -3.13%.
